Source: the M2OR odorant receptor database
Residue numbers refer to the chain shown, from its start. Only a part is listed here, and it is no random draw. The calls were merged from several studies; some rest on single wells. The list shows a part of the results.

Chains of the proteins cited; added tags and fusions are not shown. Where a name states a change or a piece, a line headed by the entry shows the natural chain unless it says otherwise. Chains listed by the source or under a name are the forms on record and can include a tag or linker.
UniProt Q8N628: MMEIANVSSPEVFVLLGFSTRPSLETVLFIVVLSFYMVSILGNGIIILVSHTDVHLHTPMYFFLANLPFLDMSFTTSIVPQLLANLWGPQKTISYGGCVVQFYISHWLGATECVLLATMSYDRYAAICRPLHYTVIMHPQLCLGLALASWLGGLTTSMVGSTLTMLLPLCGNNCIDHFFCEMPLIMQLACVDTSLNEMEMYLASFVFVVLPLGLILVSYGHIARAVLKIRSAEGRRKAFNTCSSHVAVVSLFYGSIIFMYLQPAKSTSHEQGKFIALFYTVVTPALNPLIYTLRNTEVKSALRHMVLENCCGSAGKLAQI
UniProt O95006: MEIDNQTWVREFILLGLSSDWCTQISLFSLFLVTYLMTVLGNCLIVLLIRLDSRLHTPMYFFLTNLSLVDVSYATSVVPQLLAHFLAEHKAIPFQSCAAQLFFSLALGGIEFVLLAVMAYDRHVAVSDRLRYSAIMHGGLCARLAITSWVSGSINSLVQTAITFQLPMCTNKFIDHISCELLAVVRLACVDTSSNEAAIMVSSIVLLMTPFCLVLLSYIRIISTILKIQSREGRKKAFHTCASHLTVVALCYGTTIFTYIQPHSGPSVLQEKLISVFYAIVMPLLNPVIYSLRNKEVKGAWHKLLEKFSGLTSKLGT
OR2C1, as listed by the source: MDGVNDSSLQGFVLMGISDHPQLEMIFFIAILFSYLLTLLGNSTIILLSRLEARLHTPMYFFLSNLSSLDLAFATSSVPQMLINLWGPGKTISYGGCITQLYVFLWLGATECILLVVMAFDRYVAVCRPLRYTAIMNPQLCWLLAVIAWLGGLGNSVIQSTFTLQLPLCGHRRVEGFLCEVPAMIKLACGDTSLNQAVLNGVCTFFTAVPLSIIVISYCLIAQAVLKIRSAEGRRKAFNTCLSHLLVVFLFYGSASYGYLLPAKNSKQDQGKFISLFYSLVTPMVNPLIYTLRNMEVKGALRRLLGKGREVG

Legend:
Settings in all cases: stereoisomer not certain
OR2B6 (Homo sapiens) = biological target: T1, OR2B6 (Homo sapiens) (UniProt P58173)
T1 sequence (whole entry): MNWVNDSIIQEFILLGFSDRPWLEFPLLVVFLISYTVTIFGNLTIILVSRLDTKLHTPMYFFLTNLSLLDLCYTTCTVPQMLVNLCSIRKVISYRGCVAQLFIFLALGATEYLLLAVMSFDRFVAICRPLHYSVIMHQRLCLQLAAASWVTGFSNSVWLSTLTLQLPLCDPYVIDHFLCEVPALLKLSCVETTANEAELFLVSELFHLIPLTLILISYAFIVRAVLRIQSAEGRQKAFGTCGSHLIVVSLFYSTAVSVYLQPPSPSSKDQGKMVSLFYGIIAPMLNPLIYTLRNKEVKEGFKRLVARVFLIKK
Method in brief: (§1)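 Each entry records the cell line, G-protein, co-transfected protein and tags used. Methods varied with the source, often transient luciferase assays in mammalian cell lines. A receptor–molecule pair is called responsive (active) if the original authors judged its signal statistically different from baseline and non-responsive (inactive) otherwise.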

OR2B8 = test system: T2, OR2B8
T2 sequence (whole entry): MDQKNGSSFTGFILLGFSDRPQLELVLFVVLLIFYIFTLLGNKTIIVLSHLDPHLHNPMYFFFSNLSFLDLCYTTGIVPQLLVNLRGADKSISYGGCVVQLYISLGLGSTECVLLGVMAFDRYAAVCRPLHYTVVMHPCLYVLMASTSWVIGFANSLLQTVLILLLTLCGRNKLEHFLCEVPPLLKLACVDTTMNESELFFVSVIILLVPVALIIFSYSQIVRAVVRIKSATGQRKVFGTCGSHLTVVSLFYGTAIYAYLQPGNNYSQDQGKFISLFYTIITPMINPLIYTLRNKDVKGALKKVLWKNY
Method in brief: as §1

OR2C1 [1] = test system: T3, OR2C1
T3 sequence (whole entry): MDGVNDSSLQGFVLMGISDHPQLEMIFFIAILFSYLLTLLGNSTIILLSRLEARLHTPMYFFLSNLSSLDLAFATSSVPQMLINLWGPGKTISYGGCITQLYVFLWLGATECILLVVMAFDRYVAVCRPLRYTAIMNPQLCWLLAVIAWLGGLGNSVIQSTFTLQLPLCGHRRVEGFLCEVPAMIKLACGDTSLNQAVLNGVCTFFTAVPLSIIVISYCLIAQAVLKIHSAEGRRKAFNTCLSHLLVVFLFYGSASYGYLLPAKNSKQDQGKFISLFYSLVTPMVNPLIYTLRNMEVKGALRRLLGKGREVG
Method in brief: as §1

OR2C1 [2] = test system: T4, OR2C1; remark: listed apart in the source
T4 sequence (whole entry): T3 sequence (whole entry) with H229R
Method in brief: as §1

OR2C1 [3] = test system: T5, OR2C1; remark: listed apart in the source
T5 sequence (whole entry): T3 sequence (whole entry) with P58S, H229R
Method in brief: as §1

OR2C1 [4] = test system: T6, OR2C1; remark: listed apart in the source
T6 sequence (whole entry): T3 sequence (whole entry) with G16S
Method in brief: as §1

OR2C1 [5] = test system: T7, OR2C1; remark: listed apart in the source
T7 sequence (whole entry): T3 sequence (whole entry) with G16S, H229R
Method in brief: as §1

OR2C3 (Homo sapiens) = OR2C3 (Homo sapiens) (UniProt Q8N628)
Method in brief: as §1

OR2C3 = test system: T8, OR2C3
T8 sequence (whole entry): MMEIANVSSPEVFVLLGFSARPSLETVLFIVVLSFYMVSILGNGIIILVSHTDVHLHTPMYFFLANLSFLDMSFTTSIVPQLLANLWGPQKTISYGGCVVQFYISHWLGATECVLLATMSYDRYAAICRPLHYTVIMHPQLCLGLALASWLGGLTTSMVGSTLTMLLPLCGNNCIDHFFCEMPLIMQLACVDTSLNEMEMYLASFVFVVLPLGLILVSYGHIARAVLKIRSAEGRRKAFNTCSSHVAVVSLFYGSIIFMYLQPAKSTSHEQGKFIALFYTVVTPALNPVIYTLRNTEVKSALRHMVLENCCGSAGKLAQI
Method in brief: as §1

OR2D2 (Homo sapiens) = biological target: T9, OR2D2 (Homo sapiens) (UniProt Q9H210)
T9 sequence (whole entry): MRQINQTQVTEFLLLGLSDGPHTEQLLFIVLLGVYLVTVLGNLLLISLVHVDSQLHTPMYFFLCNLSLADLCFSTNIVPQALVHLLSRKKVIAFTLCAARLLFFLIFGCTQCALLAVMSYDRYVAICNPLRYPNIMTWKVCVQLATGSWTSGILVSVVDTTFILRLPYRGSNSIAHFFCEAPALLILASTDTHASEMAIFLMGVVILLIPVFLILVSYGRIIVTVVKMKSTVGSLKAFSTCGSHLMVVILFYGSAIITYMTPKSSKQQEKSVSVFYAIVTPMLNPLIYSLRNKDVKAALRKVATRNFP
Method in brief: as §1

OR2D3 (Homo sapiens) = OR2D3 (Homo sapiens) (UniProt Q8NGH3)
Method in brief: as §1

OR2D3 = test system: T10, OR2D3
T10 sequence (whole entry): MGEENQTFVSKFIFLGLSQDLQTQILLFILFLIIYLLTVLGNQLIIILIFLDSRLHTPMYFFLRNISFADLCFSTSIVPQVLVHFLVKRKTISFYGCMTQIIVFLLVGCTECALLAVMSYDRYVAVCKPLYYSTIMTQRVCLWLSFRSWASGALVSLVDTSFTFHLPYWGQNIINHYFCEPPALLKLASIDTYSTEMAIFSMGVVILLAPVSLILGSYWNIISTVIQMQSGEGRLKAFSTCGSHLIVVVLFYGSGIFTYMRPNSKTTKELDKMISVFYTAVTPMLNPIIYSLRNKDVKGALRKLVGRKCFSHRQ
Method in brief: as §1

OR2F1 (Homo sapiens) = biological target: T11, OR2F1 (Homo sapiens) (UniProt Q13607)
T11 sequence (whole entry): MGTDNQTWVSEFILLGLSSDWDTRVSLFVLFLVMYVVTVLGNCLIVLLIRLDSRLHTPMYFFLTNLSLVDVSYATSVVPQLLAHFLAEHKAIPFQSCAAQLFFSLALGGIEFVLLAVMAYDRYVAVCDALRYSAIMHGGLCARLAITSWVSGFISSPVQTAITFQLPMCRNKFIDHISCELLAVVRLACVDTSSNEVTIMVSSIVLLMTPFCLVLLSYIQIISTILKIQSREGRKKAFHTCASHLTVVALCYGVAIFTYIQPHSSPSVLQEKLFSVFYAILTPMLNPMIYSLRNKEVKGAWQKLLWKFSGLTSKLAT
Method in brief: as §1

OR2F2 (Homo sapiens) = OR2F2 (Homo sapiens) (UniProt O95006)
Method in brief: as §1

OR2C1 (Homo sapiens) = biological target: T12, OR2C1 (Homo sapiens) (UniProt O95371)
T12 sequence (whole entry): T3 sequence (whole entry) with W149C, H229R
Method in brief: as §1

Row | SMILES | odorant receptor agonist call (OR2B6 (Homo sapiens)) | odorant receptor agonist call (OR2B8) | odorant receptor agonist call (OR2C1 [1]) | odorant receptor agonist call (OR2C1 [2]) | odorant receptor agonist call (OR2C1 [3]) | odorant receptor agonist call (OR2C1 [4]) | odorant receptor agonist call (OR2C1 [5]) | odorant receptor agonist call (OR2C3 (Homo sapiens)) | odorant receptor agonist call (OR2C3) | odorant receptor agonist call (OR2D2 (Homo sapiens)) | odorant receptor agonist call (OR2D3 (Homo sapiens)) | odorant receptor agonist call (OR2D3) | odorant receptor agonist call (OR2F1 (Homo sapiens)) | odorant receptor agonist call (OR2F2 (Homo sapiens)) | odorant receptor agonist call (OR2C1 (Homo sapiens))
1 | CC12C=CCC1C1CCC3CC(=O)CCC3(C)C1CC2 (stereo not given) | inactive | inactive | inactive | inactive | active | inactive | inactive | inactive | inactive | inactive | inactive | inactive | inactive | inactive | 
2 | CC(C)C(=O)O | inactive | inactive | inactive | inactive | inactive | inactive | inactive |  | inactive | inactive |  | inactive | inactive |  | 
3 | CCCCCCCOC(C)=O | inactive | inactive | inactive | inactive | inactive | inactive | inactive |  | inactive | inactive |  | inactive | inactive |  | 
4 | O=C1CCCCC1 | inactive | inactive | inactive | inactive | inactive | inactive | inactive |  |  |  |  | inactive | inactive |  | inactive
5 | CCCCCC(=O)O | inactive | inactive | inactive | inactive | inactive | inactive | inactive |  | inactive | inactive |  | inactive | inactive |  | inactive
6 | CCCCCCOC(=O)CCC | inactive | inactive | inactive | inactive | inactive | inactive | inactive |  | inactive | inactive |  | inactive | inactive |  | 
7 | CC(=O)c1ccccc1 | inactive | inactive | inactive | active | inactive | inactive | inactive |  |  |  |  | inactive | inactive |  | inactive
8 | CC(C)(C)c1ccc(CCC=O)cc1 | inactive | inactive | inactive | inactive | inactive | inactive | inactive |  | inactive | active |  | inactive | inactive |  | 
9 | CC(C)C=O | inactive | inactive | inactive | inactive | inactive | inactive | inactive |  | inactive | inactive |  | inactive | inactive |  | 
10 | COc1ccccc1O | inactive | inactive | inactive | inactive | inactive | inactive | inactive |  | inactive | inactive |  | inactive | inactive |  | 
11 | CCCCCCCCOC(C)=O | inactive | inactive | inactive | inactive | inactive | inactive | inactive |  | inactive | inactive |  | inactive | inactive |  | 
12 | CCCCCCCC=O | inactive | inactive | inactive | inactive | inactive | inactive | inactive |  | inactive | inactive |  | inactive | inactive |  | inactive
13 | CCCCCC(C)=O | inactive | inactive | inactive | active | inactive | inactive | inactive |  |  |  |  | inactive | inactive |  | inactive

Limited to odorant receptor agonist call (OR2D2 (Homo sapiens)) and odorant receptor agonist call (OR2C3 (Homo sapiens)) (2 entries from above):

| Row | SMILES | odorant receptor agonist call (OR2D2 (Homo sapiens)) | odorant receptor agonist call (OR2C3 (Homo sapiens)) |
| --- | --- | --- | --- |
| 1 | CC12C=CCC1C1CCC3CC(=O)CCC3(C)C1CC2 (stereo not given) | inactive | inactive |
| 6 | CCCCCCOC(=O)CCC | inactive |  |
